Chains of the proteins cited; added tags and fusions are not shown. Residues count along the entry.
UniProt P78368: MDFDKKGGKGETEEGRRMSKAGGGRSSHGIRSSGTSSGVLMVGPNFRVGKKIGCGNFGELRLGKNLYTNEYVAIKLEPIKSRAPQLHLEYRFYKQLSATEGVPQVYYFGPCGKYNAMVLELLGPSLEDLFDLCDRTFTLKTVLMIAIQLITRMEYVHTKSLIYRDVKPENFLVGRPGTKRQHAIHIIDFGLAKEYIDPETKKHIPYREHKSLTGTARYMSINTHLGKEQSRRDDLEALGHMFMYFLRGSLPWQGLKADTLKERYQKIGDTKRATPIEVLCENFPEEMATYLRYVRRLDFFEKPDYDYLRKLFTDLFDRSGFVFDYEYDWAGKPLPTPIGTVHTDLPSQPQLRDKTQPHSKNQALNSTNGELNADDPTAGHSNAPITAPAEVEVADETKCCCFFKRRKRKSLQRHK
UniProt O15169: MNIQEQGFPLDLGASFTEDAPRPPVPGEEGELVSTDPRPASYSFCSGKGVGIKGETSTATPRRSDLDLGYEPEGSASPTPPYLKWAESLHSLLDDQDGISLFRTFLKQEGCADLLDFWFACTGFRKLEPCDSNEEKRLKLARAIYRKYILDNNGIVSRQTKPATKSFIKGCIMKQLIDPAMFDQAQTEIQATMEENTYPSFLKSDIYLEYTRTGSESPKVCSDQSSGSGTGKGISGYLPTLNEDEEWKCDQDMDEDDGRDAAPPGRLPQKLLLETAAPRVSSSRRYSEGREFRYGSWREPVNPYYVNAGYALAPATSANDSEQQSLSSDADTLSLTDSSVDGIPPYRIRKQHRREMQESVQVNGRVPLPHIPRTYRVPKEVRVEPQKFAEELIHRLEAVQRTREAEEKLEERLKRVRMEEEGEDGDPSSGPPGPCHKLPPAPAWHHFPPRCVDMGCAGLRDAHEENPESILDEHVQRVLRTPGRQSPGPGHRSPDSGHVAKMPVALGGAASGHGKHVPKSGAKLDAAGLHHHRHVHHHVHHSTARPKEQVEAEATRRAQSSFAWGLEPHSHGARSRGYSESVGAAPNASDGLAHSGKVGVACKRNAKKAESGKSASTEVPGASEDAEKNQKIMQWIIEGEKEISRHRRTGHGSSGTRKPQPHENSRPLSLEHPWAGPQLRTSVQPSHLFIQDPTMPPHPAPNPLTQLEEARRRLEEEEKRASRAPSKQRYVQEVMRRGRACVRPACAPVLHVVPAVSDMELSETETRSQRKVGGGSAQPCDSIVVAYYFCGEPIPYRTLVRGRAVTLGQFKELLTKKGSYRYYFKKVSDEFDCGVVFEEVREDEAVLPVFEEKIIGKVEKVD
UniProt O14641: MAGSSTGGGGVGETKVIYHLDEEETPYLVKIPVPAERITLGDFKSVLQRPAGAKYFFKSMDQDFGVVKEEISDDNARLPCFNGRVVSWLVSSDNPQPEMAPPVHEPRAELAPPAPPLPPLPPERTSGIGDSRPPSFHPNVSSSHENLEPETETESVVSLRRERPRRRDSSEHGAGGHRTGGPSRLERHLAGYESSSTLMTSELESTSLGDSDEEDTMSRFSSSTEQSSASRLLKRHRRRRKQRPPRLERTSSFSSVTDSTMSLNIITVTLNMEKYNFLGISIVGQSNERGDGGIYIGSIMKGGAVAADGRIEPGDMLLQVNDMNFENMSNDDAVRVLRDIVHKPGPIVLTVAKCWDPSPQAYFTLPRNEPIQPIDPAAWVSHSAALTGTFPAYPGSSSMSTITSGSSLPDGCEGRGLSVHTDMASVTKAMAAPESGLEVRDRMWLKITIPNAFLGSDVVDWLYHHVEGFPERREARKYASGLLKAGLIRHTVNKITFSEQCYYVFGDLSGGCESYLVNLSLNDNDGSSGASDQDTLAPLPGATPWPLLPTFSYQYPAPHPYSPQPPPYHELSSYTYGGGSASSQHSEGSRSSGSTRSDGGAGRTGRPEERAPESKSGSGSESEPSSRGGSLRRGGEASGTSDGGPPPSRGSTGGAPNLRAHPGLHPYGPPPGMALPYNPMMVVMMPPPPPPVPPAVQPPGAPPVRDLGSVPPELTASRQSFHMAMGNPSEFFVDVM
UniProt Q9HCU4, residues 32-2923: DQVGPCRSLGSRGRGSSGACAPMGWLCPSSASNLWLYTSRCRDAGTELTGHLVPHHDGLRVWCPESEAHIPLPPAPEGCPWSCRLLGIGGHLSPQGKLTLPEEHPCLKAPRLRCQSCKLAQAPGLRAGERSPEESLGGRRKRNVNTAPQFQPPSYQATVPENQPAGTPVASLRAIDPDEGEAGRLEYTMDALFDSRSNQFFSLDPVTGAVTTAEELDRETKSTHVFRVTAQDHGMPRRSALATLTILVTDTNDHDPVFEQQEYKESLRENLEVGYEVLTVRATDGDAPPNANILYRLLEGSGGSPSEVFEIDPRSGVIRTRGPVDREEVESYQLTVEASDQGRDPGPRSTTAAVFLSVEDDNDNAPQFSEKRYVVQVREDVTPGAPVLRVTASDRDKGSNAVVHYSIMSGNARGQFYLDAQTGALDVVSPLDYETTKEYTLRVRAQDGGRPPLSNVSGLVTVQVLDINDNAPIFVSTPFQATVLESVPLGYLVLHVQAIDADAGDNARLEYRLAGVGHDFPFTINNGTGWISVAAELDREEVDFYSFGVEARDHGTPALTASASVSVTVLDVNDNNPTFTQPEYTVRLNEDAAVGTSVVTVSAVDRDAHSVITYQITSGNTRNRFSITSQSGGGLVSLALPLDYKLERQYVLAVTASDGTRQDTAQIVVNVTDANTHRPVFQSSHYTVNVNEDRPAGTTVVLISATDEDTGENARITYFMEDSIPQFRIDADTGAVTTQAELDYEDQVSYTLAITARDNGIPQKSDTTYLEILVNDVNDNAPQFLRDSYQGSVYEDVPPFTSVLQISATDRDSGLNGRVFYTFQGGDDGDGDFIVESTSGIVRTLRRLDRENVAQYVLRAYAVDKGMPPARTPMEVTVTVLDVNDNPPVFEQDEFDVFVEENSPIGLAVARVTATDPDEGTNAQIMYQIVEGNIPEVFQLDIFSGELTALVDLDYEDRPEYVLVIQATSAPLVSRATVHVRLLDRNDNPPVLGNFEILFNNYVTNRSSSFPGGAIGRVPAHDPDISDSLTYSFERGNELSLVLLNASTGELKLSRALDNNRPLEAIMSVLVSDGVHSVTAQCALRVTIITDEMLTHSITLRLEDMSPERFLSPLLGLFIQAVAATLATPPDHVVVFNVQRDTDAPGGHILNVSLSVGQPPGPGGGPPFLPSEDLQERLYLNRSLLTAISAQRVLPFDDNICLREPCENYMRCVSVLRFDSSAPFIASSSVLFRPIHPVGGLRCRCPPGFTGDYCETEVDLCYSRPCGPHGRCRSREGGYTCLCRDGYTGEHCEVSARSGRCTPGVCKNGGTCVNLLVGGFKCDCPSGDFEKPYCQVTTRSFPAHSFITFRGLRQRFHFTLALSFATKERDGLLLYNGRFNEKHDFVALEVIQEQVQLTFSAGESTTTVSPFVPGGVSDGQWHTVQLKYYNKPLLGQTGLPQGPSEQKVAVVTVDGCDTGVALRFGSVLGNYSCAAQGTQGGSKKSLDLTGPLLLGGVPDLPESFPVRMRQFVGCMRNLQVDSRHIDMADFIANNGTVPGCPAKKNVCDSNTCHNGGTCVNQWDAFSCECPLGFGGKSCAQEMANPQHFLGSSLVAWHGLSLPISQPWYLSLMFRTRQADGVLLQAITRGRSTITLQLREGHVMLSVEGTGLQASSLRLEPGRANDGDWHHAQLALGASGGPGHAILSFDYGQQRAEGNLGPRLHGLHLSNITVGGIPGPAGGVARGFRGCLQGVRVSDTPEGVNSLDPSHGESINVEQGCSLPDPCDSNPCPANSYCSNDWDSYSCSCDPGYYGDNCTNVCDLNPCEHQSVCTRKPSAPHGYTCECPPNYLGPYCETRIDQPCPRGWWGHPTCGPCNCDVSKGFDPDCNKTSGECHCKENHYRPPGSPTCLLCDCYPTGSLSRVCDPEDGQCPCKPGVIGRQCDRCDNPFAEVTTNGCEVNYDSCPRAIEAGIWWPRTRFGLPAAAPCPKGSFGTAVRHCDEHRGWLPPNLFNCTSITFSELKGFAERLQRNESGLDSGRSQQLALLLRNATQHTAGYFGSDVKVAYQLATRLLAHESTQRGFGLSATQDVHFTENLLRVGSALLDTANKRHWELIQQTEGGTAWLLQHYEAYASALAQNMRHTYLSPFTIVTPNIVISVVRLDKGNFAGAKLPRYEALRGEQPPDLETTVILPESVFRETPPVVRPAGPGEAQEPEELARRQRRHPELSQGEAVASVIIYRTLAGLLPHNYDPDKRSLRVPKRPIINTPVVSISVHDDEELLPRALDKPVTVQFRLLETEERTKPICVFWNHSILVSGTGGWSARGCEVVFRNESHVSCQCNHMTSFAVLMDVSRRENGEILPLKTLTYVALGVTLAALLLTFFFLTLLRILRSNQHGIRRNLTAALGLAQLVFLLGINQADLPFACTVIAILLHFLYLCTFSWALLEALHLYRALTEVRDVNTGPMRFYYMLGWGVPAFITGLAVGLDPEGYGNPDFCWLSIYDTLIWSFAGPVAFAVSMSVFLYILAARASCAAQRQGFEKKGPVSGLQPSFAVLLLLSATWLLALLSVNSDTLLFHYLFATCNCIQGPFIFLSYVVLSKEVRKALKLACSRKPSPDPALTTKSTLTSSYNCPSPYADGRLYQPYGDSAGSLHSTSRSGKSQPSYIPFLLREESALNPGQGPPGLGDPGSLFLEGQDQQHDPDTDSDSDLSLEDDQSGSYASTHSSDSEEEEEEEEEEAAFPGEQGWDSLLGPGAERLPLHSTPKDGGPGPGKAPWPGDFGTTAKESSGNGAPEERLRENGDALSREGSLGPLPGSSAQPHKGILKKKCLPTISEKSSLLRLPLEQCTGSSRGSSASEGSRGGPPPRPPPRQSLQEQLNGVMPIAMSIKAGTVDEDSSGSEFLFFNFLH
UniProt Q9ULC8: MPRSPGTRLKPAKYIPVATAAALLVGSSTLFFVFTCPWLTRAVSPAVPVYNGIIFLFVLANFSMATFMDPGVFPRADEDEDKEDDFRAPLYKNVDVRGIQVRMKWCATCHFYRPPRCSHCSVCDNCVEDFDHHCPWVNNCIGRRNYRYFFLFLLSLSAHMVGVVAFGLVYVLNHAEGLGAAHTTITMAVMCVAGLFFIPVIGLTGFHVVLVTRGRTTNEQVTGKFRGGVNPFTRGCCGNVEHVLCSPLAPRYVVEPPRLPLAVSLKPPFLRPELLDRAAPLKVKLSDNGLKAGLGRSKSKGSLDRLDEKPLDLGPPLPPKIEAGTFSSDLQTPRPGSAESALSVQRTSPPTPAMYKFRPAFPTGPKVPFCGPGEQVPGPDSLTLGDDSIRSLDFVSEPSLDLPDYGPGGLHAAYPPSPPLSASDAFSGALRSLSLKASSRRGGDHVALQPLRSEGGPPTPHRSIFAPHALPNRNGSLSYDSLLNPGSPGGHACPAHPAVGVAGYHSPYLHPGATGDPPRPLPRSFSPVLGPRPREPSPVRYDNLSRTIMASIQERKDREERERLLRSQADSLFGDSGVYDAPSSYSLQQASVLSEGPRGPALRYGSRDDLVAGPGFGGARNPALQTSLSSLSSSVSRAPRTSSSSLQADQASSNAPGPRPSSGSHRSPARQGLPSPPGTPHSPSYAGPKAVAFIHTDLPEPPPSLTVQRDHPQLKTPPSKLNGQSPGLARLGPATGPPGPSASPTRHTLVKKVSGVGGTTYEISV
UniProt P35222: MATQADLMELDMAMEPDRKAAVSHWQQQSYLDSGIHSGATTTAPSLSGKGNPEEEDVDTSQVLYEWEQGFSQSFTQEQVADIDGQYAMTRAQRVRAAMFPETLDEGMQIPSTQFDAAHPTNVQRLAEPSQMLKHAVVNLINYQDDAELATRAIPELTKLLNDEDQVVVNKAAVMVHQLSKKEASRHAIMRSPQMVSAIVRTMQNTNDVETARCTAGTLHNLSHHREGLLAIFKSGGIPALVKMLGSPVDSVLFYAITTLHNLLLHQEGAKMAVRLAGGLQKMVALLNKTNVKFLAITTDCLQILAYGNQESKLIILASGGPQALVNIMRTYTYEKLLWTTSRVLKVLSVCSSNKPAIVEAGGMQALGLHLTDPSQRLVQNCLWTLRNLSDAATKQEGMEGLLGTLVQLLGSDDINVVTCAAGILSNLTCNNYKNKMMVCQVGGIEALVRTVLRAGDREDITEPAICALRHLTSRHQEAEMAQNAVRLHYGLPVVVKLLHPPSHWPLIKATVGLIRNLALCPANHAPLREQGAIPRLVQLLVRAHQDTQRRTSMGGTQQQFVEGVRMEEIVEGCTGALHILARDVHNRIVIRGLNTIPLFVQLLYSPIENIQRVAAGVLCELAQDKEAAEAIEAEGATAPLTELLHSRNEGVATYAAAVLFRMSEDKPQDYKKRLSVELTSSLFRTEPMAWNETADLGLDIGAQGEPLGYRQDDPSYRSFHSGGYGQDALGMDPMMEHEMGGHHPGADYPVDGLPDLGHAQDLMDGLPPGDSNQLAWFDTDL

In PMC9157009, “Protein proximity networks and functional evaluation of the casein kinase 1 gamma family reveal unique roles for CK1γ3 in WNT signaling” (The Journal of Biological Chemistry, 2022):

Tests used:
[1] = target: miniTurbo-V5-casein kinase 1γ3 (mT-V5-CK1γ3) (human) (UniProt Q9Y6M4); experiment: proximity labelling; HEK293T cells stably expressing mT-V5-CK1γ, 50 mM biotin (Fig. 1F: biotin and WNT3A CM for 30 min), RIPA lysis, streptavidin affinity pulldown 1 h at 4 °C, Western blot of the biotinylated proteins
[2] = target: miniTurbo-V5-casein kinase 1γ1 (mT-V5-CK1γ1) (human) (UniProt Q9HCP0); experiment: as above
[3] = target: miniTurbo-V5-casein kinase 1γ2 (mT-V5-CK1γ2) (human) (UniProt P78368); experiment: as above
[4] = target: miniTurbo-V5-casein kinase 1γ3 (mT-V5-CK1γ3) (human) (UniProt Q9Y6M4); experiment: proximity labelling; HEK293T cells stably expressing mT-V5-CK1γ, 50 mM biotin for 30 min, streptavidin affinity purification overnight, mass spectrometry, biological triplicate, scored with SAINT and CompPASS
[5] = target: miniTurbo-V5-casein kinase 1γ1 (mT-V5-CK1γ1) (human) (UniProt Q9HCP0); experiment: as above
[6] = target: miniTurbo-V5-casein kinase 1γ2 (mT-V5-CK1γ2) (human) (UniProt P78368); experiment: as above

Measured: binding

AXIN1 (from UniProt O15169 1-862)
binds: [1] | [2] | [3]

DVL2 (from UniProt O14641 1-736)
binds: [1] | [2] | [3]

cadherin EGF LAG seven-pass G-type receptor 2 (CELSR2) (from UniProt Q9HCU4 32-2923)
binds: [1] | [2] | [3]

phosphoinositide-3-kinase regulatory subunit 3 (PIK3R3) (from UniProt Q92569 1-461)
binds: [4] | [5] | [6]

zinc finger DHHC-type palmitoyltransferase 8 (ZDHHC8) (from UniProt Q9ULC8 1-765) (enzyme)
binds: [4] | [5] | [6]

β-catenin (CTNNB1) (from UniProt P35222 1-781)
binds: all assays above

No constants are given. Whether binding was seen depends on the method and setting. In cells and extracts the contact can be indirect. These calls come from enrichment with a bait or labelling near it, and not all partners need be listed.
